Results from publication PMC3338841.
These are yes or no findings as the source states them, for the method shown. In cells and extracts the contact can be indirect. Some results given as binding are weak or reduced against the parent protein; the word gives no strength.

The chains behind the UniProt entries cited, without tags or fusion partners.
UniProt P57790: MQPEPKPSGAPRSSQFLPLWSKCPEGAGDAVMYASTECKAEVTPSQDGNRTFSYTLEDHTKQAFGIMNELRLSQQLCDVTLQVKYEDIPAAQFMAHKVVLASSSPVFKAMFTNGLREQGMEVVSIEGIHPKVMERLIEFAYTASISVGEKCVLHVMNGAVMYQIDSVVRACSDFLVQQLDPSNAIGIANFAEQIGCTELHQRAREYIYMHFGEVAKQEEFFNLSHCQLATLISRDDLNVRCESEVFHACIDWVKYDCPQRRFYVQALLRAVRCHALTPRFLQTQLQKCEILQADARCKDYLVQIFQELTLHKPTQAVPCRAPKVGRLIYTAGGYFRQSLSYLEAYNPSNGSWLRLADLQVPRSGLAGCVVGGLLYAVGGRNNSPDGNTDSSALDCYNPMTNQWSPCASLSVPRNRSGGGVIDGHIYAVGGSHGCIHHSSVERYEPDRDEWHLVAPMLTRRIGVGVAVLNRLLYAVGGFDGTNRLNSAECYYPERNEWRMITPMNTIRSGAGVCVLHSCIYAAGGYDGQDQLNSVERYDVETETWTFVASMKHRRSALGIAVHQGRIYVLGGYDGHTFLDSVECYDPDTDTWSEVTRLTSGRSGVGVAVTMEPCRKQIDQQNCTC
UniProt B5DF89: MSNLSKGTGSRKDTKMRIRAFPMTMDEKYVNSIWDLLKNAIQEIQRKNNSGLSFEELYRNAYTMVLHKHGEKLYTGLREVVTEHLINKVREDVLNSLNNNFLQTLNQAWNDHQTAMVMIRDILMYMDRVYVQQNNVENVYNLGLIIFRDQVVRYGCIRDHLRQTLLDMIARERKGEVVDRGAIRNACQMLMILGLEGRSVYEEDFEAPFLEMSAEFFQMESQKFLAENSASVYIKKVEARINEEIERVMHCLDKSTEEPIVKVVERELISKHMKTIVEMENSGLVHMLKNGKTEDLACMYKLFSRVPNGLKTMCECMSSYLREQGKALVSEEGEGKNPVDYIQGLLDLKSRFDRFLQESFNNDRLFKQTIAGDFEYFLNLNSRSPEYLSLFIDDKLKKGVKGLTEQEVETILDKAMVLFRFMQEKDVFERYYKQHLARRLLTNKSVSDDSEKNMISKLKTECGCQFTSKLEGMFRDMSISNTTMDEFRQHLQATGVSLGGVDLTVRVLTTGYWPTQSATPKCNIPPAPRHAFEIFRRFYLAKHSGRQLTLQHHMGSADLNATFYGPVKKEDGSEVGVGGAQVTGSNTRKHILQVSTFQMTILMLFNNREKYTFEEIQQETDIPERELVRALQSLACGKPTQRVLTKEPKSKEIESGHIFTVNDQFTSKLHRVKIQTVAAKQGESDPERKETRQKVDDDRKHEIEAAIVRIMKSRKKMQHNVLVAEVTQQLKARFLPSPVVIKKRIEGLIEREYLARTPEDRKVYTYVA

Target: Kelch-like ECH-associated protein 1 (Keap1), endogenous in NBT-II cells (rat (endogenous in NBT-II)) (UniProt P57790)
Assay: co-IP; IP with anti-Keap1 from cytosols and nuclear extracts of RT-4 and NBT-II cells treated with vehicle, CPDT (50 µM) or SF (8 µM) for 6 h; protein A or G sepharose; IB of Keap1, Nrf2, Cul3 and Rbx1; endogenous proteins

binding: binds
Substance: Cul3, endogenous in NBT-II cells (from UniProt B5DF89 1-768)
